We go through eleven compounds from patent publication US12428442B2, “Compounds, compositions and methods for synthesis” (WAVE LIFE SCIENCES LTD., priority 2017, dated 2025).

The series in a line: Use of chiral auxiliaries / phosphoramidite monomers in oligonucleotide synthesis (SOCICS or DPSE cycle), analysed by RP-HPLC/UPLC (Table 7). Conditions: dC dimer; cycle SOSICS; activator CMPT.

`CNC1(C)C2CCCCC(C2)C1O` (centres unmarked) [WV-CA-169]: the “Dimer Conv. %” value was determined as 85.4%, the “Dimer HPLC Area % dC” value came out at 7.8884%, the “Dimer HPLC Area % dCC (PO)” value was 0.3918% and the “Dimer HPLC Area % dCC (Rp)” value worked out at 2.1565%. Further, the “Dimer HPLC Area % dCC (Sp)” value worked out at 88.6194%, the “Dimer Rp/Sp” value is “Sp” and the Dimer d.r. was determined as 97.62.
As for `CNC1(C)C(O)C2CCC1C1C3CCC(CC3)C21` (centres unmarked) [WV-CA-170], the “Dimer Conv. %” value is on record as 35.4%, the “Dimer HPLC Area % dC” value is 45.8889%, the “Dimer HPLC Area % dCC (PO)” value worked out at 0.5981% and the “Dimer HPLC Area % dCC (Rp)” value stood at 46.7151%. Further, the “Dimer HPLC Area % dCC (Sp)” value is reported as 2.2635%, the “Dimer Rp/Sp” value was “Rp” and the Dimer d.r. is 95.38.
On to `CC1(C)CN[C@H](C2(O)CCCC2)C1` [WV-CA-201], for which the “Dimer Conv. %” value was 77.8%, the “Dimer HPLC Area % dC” value came out at 12.43%, the “Dimer HPLC Area % dCC (PO)” value worked out at 2.53% and the “Dimer HPLC Area % dCC (Rp)” value came to 2.03%. Besides, the “Dimer HPLC Area % dCC (Sp)” value stood at 81.30%, the “Dimer Rp/Sp” value was “Sp” and the Dimer d.r. is 97.56.
Take `OC1([C@H]2N[C@@H]3CC[C@H]2C3)CCCC1` [WV-CA-202]: the “Dimer Conv. %” value is 75.9%, the “Dimer HPLC Area % dC” value stood at 13.69%, the “Dimer HPLC Area % dCC (PO)” value is given as 2.10% and the “Dimer HPLC Area % dCC (Rp)” value was 0.83%. Besides, the “Dimer HPLC Area % dCC (Sp)” value came to 82.10%, the “Dimer Rp/Sp” value is “Sp” and the Dimer d.r. came to 98.99.
`COc1ccc([C@@H](O)[C@@H]2CCCN2)cc1` [WV-CA-206]: the “Dimer Conv. %” value is recorded as 9.9%, the “Dimer HPLC Area % dC” value is 77.99%, the “Dimer HPLC Area % dCC (PO)” value amounted to 1.25% and the “Dimer HPLC Area % dCC (Rp)” value was found to be 0.80%. Besides, the “Dimer HPLC Area % dCC (Sp)” value is 14.83%, the “Dimer Rp/Sp” value is on record as “Sp” and the Dimer d.r. came out at 94.86.
Regarding `CN[C@H]1CCCC[C@@H]1O` [WV-CA-207], the “Dimer Conv. %” value was found to be 36.2%, the “Dimer HPLC Area % dC” value came to 33.39%, the “Dimer HPLC Area % dCC (PO)” value was 1.20% and the “Dimer HPLC Area % dCC (Rp)” value is listed as 24.80%. The “Dimer HPLC Area % dCC (Sp)” value was 11.33%, the “Dimer Rp/Sp” value was “Rp” and the Dimer d.r. worked out at 68.64.
`CN[C@@H]1CCCC[C@@]1(C)O` [WV-CA-216]: the “Dimer Conv. %” value turned out to be 95.6%, the “Dimer HPLC Area % dC” value turned out to be 2.24%, the “Dimer HPLC Area % dCC (PO)” value was determined as 1.78% and the “Dimer HPLC Area % dCC (Rp)” value turned out to be 4.56%. The “Dimer HPLC Area % dCC (Sp)” value was found to be 89.54%, the “Dimer Rp/Sp” value is recorded as “Sp” and the Dimer d.r. is reported as 95.15.
Regarding `CN[C@H]1CCCCC[C@@H]1O` [WV-CA-221], the “Dimer Conv. %” value is on record as 48.7%, the “Dimer HPLC Area % dC” value amounted to 30.46%, the “Dimer HPLC Area % dCC (PO)” value is reported as 2.33% and the “Dimer HPLC Area % dCC (Rp)” value is reported as 46.40%. The “Dimer HPLC Area % dCC (Sp)” value was 8.38%, the “Dimer Rp/Sp” value is listed as “Rp” and the Dimer d.r. stood at 84.71.
Regarding `CN[C@@H]1CCCCC[C@H]1O` [WV-CA-222], the “Dimer Conv. %” value is 52.3%, the “Dimer HPLC Area % dC” value is given as 25.83%, the “Dimer HPLC Area % dCC (PO)” value is given as 2.17% and the “Dimer HPLC Area % dCC (Rp)” value was 2.96%. Moreover, the “Dimer HPLC Area % dCC (Sp)” value is 50.72%, the “Dimer Rp/Sp” value was “Sp” and the Dimer d.r. was 94.49.
In the case of `CN[C@H]1CCCCCC[C@@H]1O` [WV-CA-223], the “Dimer Conv. %” value came to 32.5%, the “Dimer HPLC Area % dC” value is listed as 41.23%, the “Dimer HPLC Area % dCC (PO)” value was found to be 2.37% and the “Dimer HPLC Area % dCC (Rp)” value is on record as 2.30%. The “Dimer HPLC Area % dCC (Sp)” value worked out at 34.47%, the “Dimer Rp/Sp” value is recorded as “Sp” and the Dimer d.r. is recorded as 93.75.
Turning to `CN[C@@H]1CCCCCC[C@H]1O` [WV-CA-224], the “Dimer Conv. %” value turned out to be 32.1%, the “Dimer HPLC Area % dC” value came to 44.27%, the “Dimer HPLC Area % dCC (PO)” value is 2.04% and the “Dimer HPLC Area % dCC (Rp)” value is given as 36.82%. Moreover, the “Dimer HPLC Area % dCC (Sp)” value was determined as 2.39%, the “Dimer Rp/Sp” value was “Rp” and the Dimer d.r. came to 93.90.
